The other results are listed elsewhere or left out. Hit calls seldom repeat between salt and free forms of one compound.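 Kinases, fused to nanoluciferase, were expressed in K562 cells; luminescence was measured every 4 h from 2 to 18 h as percent of control (DMSO = 100%, positive control = 0%). A time point is decreased if signal falls significantly (2 sigma). Hits were called by the authors by a rule that is not shown; the count of time points alone does not decide it.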
Key:
Experiment in all cases: kinase-Nluc reporter destabilization hit call (1 = scored as downregulated) (binary); higher = compound decreases kinase abundance
Conditions in all cases: K562; 2-18 h
[1] = biological target: MAPK1 (UniProt P28482)
[2] = biological target: MAPK4 (UniProt P31152)
[3] = biological target: MAPKAPK2 (UniProt P49137)
[4] = biological target: MKNK1 (UniProt Q9BUB5)
[5] = biological target: NTRK2 (UniProt Q16620)
[6] = biological target: NTRK3 (UniProt Q16288)
[7] = biological target: PAK4 (UniProt O96013)
[8] = biological target: PBK (UniProt Q96KB5)
[9] = biological target: PDGFRB (UniProt P09619)
[10] = biological target: PDK1 (UniProt Q15118)
[11] = biological target: PDPK1 (UniProt O15530)
[12] = biological target: PIK4CA (UniProt P42356)
[13] = biological target: PIK4CB (UniProt Q9UBF8)
[14] = biological target: PLK1 (UniProt P53350)
[15] = biological target: PRKAA1 (UniProt Q13131)
[16] = biological target: PRKCA (UniProt P17252)
[17] = biological target: PTK2 (UniProt Q05397)
[18] = biological target: PTK2B (UniProt Q14289)
[19] = biological target: RAF1 (UniProt P04049)
[20] = biological target: RAF1_S257L (clone: RAF1_mut) (UniProt P04049)

Sequences of proteins named here, by UniProt entry; tags and fusion partners are left off. A change or cut given only in a name is not applied to a line headed by its entry.
UniProt P31152, whole entry: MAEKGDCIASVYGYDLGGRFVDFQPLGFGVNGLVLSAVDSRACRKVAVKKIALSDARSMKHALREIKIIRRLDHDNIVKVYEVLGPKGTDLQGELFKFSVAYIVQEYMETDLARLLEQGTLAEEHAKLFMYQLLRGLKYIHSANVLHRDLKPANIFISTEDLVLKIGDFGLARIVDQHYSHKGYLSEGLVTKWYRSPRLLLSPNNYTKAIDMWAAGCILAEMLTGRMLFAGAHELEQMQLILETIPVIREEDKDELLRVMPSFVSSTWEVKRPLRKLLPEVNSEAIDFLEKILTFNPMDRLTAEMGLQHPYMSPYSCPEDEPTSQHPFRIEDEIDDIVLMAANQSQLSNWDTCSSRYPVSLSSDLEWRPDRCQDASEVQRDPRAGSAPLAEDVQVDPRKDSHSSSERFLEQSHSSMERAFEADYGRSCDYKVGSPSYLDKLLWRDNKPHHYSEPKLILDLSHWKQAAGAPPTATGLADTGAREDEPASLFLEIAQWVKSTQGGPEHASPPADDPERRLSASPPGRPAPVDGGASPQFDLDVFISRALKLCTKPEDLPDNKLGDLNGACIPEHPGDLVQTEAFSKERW
UniProt P49137, whole entry, looked up: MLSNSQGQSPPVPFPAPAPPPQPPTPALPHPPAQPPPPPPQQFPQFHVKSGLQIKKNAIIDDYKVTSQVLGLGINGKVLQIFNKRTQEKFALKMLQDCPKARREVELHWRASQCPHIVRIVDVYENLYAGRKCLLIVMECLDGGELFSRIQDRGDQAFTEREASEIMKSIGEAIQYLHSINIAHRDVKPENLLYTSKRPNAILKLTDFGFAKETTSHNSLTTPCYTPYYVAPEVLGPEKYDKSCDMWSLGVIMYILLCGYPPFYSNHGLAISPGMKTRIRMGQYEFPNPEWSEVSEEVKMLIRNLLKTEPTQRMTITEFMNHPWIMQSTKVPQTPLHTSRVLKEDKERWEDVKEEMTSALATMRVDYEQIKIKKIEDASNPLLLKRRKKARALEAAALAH
UniProt Q9BUB5: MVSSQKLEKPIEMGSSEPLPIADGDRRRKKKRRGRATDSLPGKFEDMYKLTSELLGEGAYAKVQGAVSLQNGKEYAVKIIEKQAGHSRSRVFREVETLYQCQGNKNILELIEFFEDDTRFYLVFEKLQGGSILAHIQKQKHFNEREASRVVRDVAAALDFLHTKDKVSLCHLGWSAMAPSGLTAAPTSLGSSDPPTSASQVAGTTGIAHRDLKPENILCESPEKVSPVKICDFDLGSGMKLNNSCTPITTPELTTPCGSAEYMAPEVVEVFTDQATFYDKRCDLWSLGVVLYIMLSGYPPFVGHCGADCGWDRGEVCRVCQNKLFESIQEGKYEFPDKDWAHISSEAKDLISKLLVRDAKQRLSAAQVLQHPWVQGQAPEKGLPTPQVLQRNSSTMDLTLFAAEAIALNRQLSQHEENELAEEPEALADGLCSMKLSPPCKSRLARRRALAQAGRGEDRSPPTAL
UniProt Q16620, whole entry, looked up: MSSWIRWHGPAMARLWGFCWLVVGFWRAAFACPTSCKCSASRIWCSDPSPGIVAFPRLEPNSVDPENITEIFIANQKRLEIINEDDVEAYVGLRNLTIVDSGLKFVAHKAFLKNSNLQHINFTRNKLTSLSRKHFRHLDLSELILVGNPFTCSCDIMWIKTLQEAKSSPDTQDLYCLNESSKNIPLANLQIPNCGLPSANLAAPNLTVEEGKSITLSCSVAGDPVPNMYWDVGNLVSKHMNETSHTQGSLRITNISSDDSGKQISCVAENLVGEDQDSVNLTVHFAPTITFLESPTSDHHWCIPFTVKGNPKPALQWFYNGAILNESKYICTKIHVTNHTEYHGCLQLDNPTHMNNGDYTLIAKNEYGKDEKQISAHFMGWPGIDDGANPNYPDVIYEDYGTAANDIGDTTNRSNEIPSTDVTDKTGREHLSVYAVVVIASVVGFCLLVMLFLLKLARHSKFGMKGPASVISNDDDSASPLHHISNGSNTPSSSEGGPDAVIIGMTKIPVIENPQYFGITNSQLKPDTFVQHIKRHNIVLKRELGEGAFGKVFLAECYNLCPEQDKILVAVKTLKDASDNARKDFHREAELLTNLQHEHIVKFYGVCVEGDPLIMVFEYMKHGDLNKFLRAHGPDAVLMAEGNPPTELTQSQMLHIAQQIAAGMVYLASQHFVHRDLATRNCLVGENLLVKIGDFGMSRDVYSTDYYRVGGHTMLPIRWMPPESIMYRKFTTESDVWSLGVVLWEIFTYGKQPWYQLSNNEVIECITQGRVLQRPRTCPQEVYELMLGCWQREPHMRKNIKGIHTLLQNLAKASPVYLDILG
UniProt O96013: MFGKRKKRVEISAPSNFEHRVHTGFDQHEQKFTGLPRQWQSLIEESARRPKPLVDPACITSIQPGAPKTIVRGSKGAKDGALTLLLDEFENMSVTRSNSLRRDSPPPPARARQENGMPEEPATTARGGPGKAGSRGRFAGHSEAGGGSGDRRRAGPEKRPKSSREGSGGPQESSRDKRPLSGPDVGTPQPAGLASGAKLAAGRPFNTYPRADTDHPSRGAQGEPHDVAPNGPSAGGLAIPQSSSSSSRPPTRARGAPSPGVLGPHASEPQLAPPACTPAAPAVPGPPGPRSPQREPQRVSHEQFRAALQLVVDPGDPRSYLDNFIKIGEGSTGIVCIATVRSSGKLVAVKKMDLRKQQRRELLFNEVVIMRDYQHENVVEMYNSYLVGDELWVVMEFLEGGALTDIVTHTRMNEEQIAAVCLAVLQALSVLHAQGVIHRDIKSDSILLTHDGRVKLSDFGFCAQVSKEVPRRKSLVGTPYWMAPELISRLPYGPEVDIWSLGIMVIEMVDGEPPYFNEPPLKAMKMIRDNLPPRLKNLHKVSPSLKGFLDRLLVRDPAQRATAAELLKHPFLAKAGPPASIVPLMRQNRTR
UniProt Q96KB5: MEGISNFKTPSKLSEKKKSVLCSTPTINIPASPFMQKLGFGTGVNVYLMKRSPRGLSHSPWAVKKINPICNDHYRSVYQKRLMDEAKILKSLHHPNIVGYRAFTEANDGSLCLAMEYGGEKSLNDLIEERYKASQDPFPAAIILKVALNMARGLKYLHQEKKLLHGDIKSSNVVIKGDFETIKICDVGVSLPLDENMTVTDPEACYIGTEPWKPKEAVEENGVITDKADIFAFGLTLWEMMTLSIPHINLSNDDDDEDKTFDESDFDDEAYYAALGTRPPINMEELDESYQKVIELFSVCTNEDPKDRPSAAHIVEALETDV
UniProt Q15118, whole entry, looked up: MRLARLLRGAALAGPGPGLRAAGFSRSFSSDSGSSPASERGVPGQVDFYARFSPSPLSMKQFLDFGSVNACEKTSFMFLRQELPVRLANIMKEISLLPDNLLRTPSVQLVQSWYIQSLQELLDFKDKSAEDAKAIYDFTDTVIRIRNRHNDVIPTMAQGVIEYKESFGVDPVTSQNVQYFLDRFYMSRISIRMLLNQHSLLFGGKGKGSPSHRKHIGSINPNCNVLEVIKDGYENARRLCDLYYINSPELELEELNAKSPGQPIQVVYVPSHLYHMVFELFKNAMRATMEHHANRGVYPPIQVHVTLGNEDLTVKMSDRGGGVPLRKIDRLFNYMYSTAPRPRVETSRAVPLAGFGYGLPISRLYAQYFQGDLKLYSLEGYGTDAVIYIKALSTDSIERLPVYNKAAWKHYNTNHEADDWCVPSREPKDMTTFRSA
UniProt P42356, whole entry, looked up: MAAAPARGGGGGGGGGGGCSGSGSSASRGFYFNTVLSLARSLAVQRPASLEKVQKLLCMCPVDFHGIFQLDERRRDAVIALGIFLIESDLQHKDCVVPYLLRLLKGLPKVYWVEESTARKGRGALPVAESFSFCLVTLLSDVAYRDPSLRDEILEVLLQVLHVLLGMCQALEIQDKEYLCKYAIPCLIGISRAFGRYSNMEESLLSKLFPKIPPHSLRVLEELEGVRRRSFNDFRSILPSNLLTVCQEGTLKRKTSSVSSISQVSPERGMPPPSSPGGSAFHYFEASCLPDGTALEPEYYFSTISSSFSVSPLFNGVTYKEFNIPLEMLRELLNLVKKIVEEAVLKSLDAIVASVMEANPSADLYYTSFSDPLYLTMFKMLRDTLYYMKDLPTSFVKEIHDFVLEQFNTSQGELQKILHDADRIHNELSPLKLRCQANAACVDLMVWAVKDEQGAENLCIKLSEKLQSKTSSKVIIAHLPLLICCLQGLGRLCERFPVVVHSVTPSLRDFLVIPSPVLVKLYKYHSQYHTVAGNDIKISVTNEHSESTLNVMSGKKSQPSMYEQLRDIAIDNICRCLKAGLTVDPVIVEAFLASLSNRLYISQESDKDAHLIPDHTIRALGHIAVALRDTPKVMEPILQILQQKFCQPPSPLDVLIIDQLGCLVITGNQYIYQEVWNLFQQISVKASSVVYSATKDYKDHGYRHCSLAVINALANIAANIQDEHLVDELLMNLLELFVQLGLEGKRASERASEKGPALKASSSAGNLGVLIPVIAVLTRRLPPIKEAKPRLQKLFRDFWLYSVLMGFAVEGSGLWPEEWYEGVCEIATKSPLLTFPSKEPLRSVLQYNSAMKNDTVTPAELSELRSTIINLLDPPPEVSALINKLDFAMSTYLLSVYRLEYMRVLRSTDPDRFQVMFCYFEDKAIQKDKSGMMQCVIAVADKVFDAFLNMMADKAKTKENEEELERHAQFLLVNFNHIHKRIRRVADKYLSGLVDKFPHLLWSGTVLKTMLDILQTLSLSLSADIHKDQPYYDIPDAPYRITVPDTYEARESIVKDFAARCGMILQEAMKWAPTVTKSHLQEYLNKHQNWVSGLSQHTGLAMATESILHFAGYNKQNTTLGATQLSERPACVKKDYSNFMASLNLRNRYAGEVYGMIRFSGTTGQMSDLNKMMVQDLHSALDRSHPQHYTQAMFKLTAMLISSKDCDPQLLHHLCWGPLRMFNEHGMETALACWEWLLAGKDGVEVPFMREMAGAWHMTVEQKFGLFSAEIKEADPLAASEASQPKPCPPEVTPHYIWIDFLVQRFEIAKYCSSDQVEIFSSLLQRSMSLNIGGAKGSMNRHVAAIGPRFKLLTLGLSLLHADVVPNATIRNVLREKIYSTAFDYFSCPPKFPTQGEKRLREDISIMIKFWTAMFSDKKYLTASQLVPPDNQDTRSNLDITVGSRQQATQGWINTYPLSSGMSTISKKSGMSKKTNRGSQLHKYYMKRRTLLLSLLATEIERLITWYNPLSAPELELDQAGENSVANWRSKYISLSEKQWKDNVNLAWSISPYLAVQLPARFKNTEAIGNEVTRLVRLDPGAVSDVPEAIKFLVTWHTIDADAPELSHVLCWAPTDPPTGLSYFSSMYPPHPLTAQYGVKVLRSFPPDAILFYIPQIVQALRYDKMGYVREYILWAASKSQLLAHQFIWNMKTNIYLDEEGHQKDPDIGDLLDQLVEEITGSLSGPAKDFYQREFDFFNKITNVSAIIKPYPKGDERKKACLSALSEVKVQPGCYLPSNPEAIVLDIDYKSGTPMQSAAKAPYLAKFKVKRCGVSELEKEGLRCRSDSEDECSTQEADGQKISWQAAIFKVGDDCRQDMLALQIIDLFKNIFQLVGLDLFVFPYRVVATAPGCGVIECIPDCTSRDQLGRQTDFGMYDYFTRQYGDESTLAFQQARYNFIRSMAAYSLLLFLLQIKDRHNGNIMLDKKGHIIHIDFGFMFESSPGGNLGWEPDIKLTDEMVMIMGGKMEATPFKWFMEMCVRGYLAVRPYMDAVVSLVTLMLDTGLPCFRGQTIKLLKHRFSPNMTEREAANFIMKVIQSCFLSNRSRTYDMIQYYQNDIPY
UniProt Q9UBF8: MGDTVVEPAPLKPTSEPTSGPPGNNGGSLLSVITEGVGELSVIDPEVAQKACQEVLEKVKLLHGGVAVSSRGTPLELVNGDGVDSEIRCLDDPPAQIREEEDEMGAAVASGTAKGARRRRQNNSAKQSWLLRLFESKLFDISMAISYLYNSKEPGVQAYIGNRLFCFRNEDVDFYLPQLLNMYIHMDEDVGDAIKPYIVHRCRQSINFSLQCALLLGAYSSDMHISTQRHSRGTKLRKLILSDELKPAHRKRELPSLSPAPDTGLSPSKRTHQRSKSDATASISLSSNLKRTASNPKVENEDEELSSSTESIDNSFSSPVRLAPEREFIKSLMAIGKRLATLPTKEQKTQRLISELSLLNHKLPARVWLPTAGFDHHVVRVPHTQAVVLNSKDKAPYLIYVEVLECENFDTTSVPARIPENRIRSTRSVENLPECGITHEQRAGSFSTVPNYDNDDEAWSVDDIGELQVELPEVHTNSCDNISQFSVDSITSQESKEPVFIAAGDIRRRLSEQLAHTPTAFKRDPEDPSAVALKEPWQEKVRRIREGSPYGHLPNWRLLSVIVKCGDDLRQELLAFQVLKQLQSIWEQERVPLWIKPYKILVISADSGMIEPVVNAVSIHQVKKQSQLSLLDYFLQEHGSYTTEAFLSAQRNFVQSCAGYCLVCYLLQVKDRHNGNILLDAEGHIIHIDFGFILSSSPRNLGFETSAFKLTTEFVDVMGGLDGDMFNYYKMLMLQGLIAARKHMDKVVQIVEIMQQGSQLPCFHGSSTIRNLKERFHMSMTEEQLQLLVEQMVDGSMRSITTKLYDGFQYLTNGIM

Structure (SMILES)	kinase-Nluc reporter destabilization hit call [1]	kinase-Nluc reporter destabilization hit call [2]	kinase-Nluc reporter destabilization hit call [3]	kinase-Nluc reporter destabilization hit call [4]	kinase-Nluc reporter destabilization hit call [5]	kinase-Nluc reporter destabilization hit call [6]	kinase-Nluc reporter destabilization hit call [7]	kinase-Nluc reporter destabilization hit call [8]	kinase-Nluc reporter destabilization hit call [9]	kinase-Nluc reporter destabilization hit call [10]	kinase-Nluc reporter destabilization hit call [11]	kinase-Nluc reporter destabilization hit call [12]	kinase-Nluc reporter destabilization hit call [13]	kinase-Nluc reporter destabilization hit call [14]	kinase-Nluc reporter destabilization hit call [15]	kinase-Nluc reporter destabilization hit call [16]	kinase-Nluc reporter destabilization hit call [17]	kinase-Nluc reporter destabilization hit call [18]	kinase-Nluc reporter destabilization hit call [19]	kinase-Nluc reporter destabilization hit call [20]
CCOc1cc2ncc(C#N)c(Nc3ccc(OCc4ccccn4)c(Cl)c3)c2cc1NC(=O)/C=C/CN(C)C [Neratinib] (10 µM)	inactive: 0	inactive: 0	inactive: 0	inactive: 0	inactive: 0	inactive: 0	inactive: 0	inactive: 0	inactive: 0	inactive: 0	inactive: 0	inactive: 0	inactive: 0	inactive: 0	inactive: 0	inactive: 0	inactive: 0	inactive: 0	inactive: 0	inactive: 0
COc1c(Cl)cc2c([nH]c3cnccc32)c1NC(=O)c1cccnc1C (10 µM)	inactive: 0	inactive: 0	inactive: 0	inactive: 0	inactive: 0	inactive: 0	inactive: 0	inactive: 0	inactive: 0	inactive: 0	inactive: 0	inactive: 0	inactive: 0	inactive: 0	inactive: 0	inactive: 0	inactive: 0	inactive: 0	inactive: 0	inactive: 0
CCN(CC)CCCCNc1ncc2cc(-c3c(Cl)cccc3Cl)c(NC(=O)NC(C)(C)C)nc2n1 (2.5 µM)	inactive: 0	inactive: 0	inactive: 0	inactive: 0	inactive: 0	inactive: 0	inactive: 0	inactive: 0	inactive: 0	inactive: 0	inactive: 0	inactive: 0	inactive: 0	inactive: 0	inactive: 0	inactive: 0	inactive: 0	inactive: 0	inactive: 0	inactive: 0
O=C1Cc2c([nH]c3ccc(Br)cc23)-c2ncccc2N1 [1-Azakenpaullone] (10 µM)	inactive: 0	inactive: 0	inactive: 0	inactive: 0	inactive: 0	inactive: 0	inactive: 0	inactive: 0	inactive: 0	inactive: 0	inactive: 0	inactive: 0	inactive: 0	inactive: 0	inactive: 0	inactive: 0	inactive: 0	inactive: 0	inactive: 0	inactive: 0
O=c1cc(-c2ccccc2)oc2c(O)c(O)ccc12 [7,8-Dihydroxyflavone] (10 µM)	inactive: 0	inactive: 0	inactive: 0	inactive: 0	inactive: 0	inactive: 0	inactive: 0	inactive: 0	inactive: 0	inactive: 0	inactive: 0	inactive: 0	inactive: 0	inactive: 0	inactive: 0	inactive: 0	inactive: 0	inactive: 0	inactive: 0	inactive: 0
Cc1cccc(Cn2nc(C3CC3)c3c(NC(=O)c4cnc5cc(OCCN6CCN(C)CC6)ccn45)cccc32)n1 (10 µM)	inactive: 0	inactive: 0	inactive: 0	inactive: 0	inactive: 0	inactive: 0	inactive: 0	inactive: 0	inactive: 0	inactive: 0	inactive: 0	inactive: 0	inactive: 0	inactive: 0	inactive: 0	inactive: 0	inactive: 0	inactive: 0	inactive: 0	inactive: 0
Nc1nc(OCC2CCCCC2)c2[nH]cnc2n1 (10 µM)	inactive: 0	inactive: 0	inactive: 0	inactive: 0	inactive: 0	inactive: 0	inactive: 0	inactive: 0	inactive: 0	inactive: 0	inactive: 0	inactive: 0	inactive: 0	inactive: 0	inactive: 0	inactive: 0	inactive: 0	inactive: 0	inactive: 0	inactive: 0
CN1CCC(Nc2ncc3ncnc(Nc4ccc(F)c(Cl)c4)c3n2)CC1 [Falnidamol] (10 µM)	inactive: 0	inactive: 0	inactive: 0	inactive: 0	inactive: 0	inactive: 0	inactive: 0	inactive: 0	inactive: 0	inactive: 0	inactive: 0	inactive: 0	inactive: 0	inactive: 0	inactive: 0	inactive: 0	inactive: 0	inactive: 0	inactive: 0	inactive: 0
CC(C)C(=O)Nc1ncc(-c2cc(C(F)F)nn2-c2c(Cl)cccc2Cl)s1 (10 µM)	inactive: 0	inactive: 0	inactive: 0	inactive: 0	inactive: 0	inactive: 0	inactive: 0	inactive: 0	inactive: 0	inactive: 0	inactive: 0	inactive: 0	inactive: 0	inactive: 0	inactive: 0	inactive: 0	active: 1	inactive: 0	inactive: 0	inactive: 0

From the supplement of paper PMC12823440, “Inhibitors supercharge kinase turnover through native proteolytic circuits” (Nature, 2025)
